Experimental data published in patent publication US20250346890A1, “LEUKEMIA TREATMENT” (Deutsches Krebsforschungszentrum, priority 2019, published 2025).
No constants are given. Whether binding was seen depends on the method and setting. Some binding calls cover weakened binding; strength is not graded here.

By UniProt entry, the sequences of proteins in these tests, tags left out. Residues count along the entry.
UniProt P36894, residues 24-532: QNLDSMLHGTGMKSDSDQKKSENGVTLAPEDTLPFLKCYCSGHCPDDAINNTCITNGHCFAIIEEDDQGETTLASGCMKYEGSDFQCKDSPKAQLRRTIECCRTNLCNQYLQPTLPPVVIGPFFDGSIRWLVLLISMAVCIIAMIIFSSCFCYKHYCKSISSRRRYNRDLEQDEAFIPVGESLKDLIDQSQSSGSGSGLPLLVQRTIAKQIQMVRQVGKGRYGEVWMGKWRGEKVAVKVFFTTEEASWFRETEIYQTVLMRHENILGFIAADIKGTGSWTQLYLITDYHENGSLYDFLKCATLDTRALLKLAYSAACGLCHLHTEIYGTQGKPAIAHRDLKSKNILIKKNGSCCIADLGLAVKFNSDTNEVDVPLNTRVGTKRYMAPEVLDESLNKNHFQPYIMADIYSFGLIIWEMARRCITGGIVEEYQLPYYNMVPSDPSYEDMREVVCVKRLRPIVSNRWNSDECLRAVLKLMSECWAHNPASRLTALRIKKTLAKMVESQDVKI

Molecular target: human ALK3-HA expressed in HEK293T cells (human) (UniProt P36894)
Assay: cell surface binding assay on HEK293T cells transfected with human ALK3-HA

B1: RSPO2^ΔFU (human RSPO2 Furin1 and Furin2 deletion mutant) (ligand, not shown: small tags and cut ends)
chain: GCEVGHWSEWGTCSRNNRTCGFKWGLETRTRQIVKKPVKDTILCPTIAESRRCKMTMRHCP
With B1 the binding was “binds”.
